# Reference: patent US20260217850A1
# By UniProt entry, the sequences of proteins in these tests, tags left out. Residues count along the entry.
# UniProt Q5VAN0, residues 43-301: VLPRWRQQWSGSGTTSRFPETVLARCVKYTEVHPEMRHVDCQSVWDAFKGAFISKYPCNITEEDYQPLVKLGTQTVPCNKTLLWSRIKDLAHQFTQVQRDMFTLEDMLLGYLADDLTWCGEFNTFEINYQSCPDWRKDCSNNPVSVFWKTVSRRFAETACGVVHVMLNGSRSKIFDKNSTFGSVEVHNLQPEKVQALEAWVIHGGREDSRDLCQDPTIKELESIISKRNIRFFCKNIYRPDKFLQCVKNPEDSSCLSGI
# Results are given in words; binding and its absence hold for the method and conditions named. Some results given as binding are weak or reduced against the parent protein; the word gives no strength.
# Tests used:
# [1] = molecular target: cynomolgus CD38 antigen (cynomolgus) (UniProt Q5VAN0); assay: ELISA, coated CD38 antigen
# [2] = molecular target: cynomolgus CD38 antigen (cynomolgus) (UniProt Q5VAN0); assay: ELISA, coated cynomolgus CD38 antigen
binder,measurement,setting,value
"H2 antibody (antibody, V domains shown) VH: EVQLQESGAELVRSGASVKMSCKASGYTFTDYNVHWIKQTPGQGLEWIGYFYPRNGATHYNQKFTGKATLTADTSSSTAYIQISSLTSEDSAVYFCARGETPGTFPYWGQGTLVTVSA VL: DIVLTQSPASLTVSLGQRATISCRASESVDNFGITFMHWYQQKPGQPPKLLIYRASNLESGIPARFSGSGSRTDFTLTIDPVETDDVATYYCQQSSKDPRTFGGGTKLEIK",binding,[1],binds
same,binding,[2],binds
